Measured values from US11331291B2, “Method of and improved composition for treating triterpene-responsive conditions, diseases or disorders” (PHOENIX BIOTECHNOLOGY, INC., priority 2017, dated 2022).
For some assays here: At least one compound was matched to its structure with a doubt left. Some of these results come from one statement about several compounds together.

Columns and labels:
[1] = system: cortical pyramidal neurons; conditions: prior art FIG. 5; equimolar basis; cited from earlier work
[2] = system: ARE target genes (Srx, Hmox1); conditions: prior results; cited from earlier work
[3] = system: ARE target genes (Srx, Hmox1); assay: ARE gene expression qPCR in rat primary corticostriatal co-cultures; format: cell-based; conditions: 6 h; closely-spaced concentrations; FIG. 4
Procedure: FIG. 3 (prior art: Van Kanegan: vide supra) depicts the results of ARE gene expression assays for Fraction 0-4 and the individual triterpenes oleanolic acid, ursolic acid, betulinic acid and uvaol (also referred to as uvalol). “X” symbols denote concentrations of compounds which induced toxicity and for which recovery of residual mRNA was insufficient to support qPCR analysis. Rat primary corticostriatal co-cultures were treated for 6 h with Fraction 0-4 (in μg/ml) or oleanolic acid, ursolic acid, betulinic acid, or uvaol (all in μM) at the concentrations indicated, then harvested and processed for qPCR analysis of the ARE target genes shown. Quantitative RNA values were normalized to the GAPDH reference control and fold-expression changes are expressed relative to the DMSO-carrier only condition (“--”) set to a value of 1. […]
FIG. 4 depicts the results of expression assays for Fraction 0-4 and the individual triterpenes ursolic acid and betulinic acid at more closely-spaced concentration ranges. […] Quantitative RNA values were normalized to the GAPDH reference control and fold-expression changes are expressed relative to the DMSO-carrier only condition (“--”) set to a value of 1. […]
For qPCR quantification of ARE target gene expression levels, cortical and striatal neurons were plated onto 96-well plates containing mature glial cultures and cultured for 96 h. […]

| SMILES | neuroprotective activity of individual triterpenes in OGD assay [1] | toxic concentration relative to concentration required to induce gene expression [2] | upregulation of Srx and Hmox1 [3] |
| --- | --- | --- | --- |
| C[C@H]1[C@H](C)CC[C@]2(CO)CC[C@]3(C)C(=CC[C@@H]4[C@@]5(C)CC[C@H](O)C(C)(C)[C@@H]5CC[C@]43C)[C@H]12 [Uva, uvaol] | little to no activity | – | – |
| C=C(C)[C@@H]1CC[C@]2(C(=O)O)CC[C@]3(C)[C@H](CC[C@@H]4[C@@]5(C)CC[C@H](O)C(C)(C)[C@@H]5CC[C@]43C)[C@@H]12 [BA, betulinic acid] | little to no activity | 2-3 fold | clear upregulation |
| C[C@H]1[C@H](C)CC[C@]2(C(=O)O)CC[C@]3(C)C(=CC[C@@H]4[C@@]5(C)CC[C@H](O)C(C)(C)[C@@H]5CC[C@]43C)[C@H]12 [UA, ursolic acid] | – | 2-3 fold | – |
